Data: US20040132641A1 (University of Pennsylvania, published 2004)
These are yes or no findings as the source states them, for the method shown. Some results given as binding are weak or reduced against the parent protein; the word gives no strength.

The chains behind the UniProt entries cited, without tags or fusion partners. Residues count along the entry.
UniProt P48023, residues 103-281: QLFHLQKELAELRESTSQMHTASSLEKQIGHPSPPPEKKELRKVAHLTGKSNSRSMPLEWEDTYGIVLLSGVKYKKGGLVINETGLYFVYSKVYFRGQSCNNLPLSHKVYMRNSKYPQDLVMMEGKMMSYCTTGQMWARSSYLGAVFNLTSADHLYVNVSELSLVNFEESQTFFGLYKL

Tests used:
[1] = target: Flag-tagged soluble human Fas ligand (FasL-Flag) (human) (UniProt P48023); experiment: competition ELISA: FasL-Flag (100 ng/ml) preincubated with peptide, added to immobilised Fas-Fc, anti-Flag-HRP detection; blocked partner Fas-Fc
[2] = target: Flag-tagged soluble human Fas ligand (FasL-Flag) (human) (UniProt P48023); experiment: competition ELISA, dose response: FasL-Flag (100 ng/ml) preincubated with peptide, added to immobilised Fas-Fc; blocked partner Fas-Fc

Binder	binding [1]	binding [2]
YCDEKFCY (Cys2 and Cys7 joined by an intramolecular disulfide (cyclised)) [Kp 7-9]	binds	
YCDEGHLCY (Cys2 and Cys8 joined by an intramolecular disulfide (cyclised)) [Kp 7-2]	binds	binds
YCQEKEYCY (Cys2 and Cys8 joined by an intramolecular disulfide (cyclised)) [Kp 4-2]	binds	
YCQERKEYCY (Cys2 and Cys9 joined by an intramolecular disulfide (cyclised)) [Kp 4-3]	binds	
YCDEGLCY (Cys2 and Cys7 joined by an intramolecular disulfide (cyclised)) [Kp 7-3]	binds	
YCDEGYFCY (Cys2 and Cys8 joined by an intramolecular disulfide (cyclised)) [Kp 7-4]	binds	
